Measurements as given in patent US6713260B2, “Methods of identifying compounds that bind to target species under isothermal denaturing conditions” (Pharmacia & Upjohn Company, priority 1999, dated 2004).

The chains behind the UniProt entries cited, without tags or fusion partners. Residues count along the entry.
UniProt P08254, 100-264 limits assumed: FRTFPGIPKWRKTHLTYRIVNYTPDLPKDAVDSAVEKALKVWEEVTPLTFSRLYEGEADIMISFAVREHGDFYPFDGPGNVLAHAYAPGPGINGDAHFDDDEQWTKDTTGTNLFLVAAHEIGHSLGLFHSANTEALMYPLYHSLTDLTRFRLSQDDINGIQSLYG

Columns and labels:
Stromelysin [1] = target: T1, Stromelysin (Homo sapiens, UniProt P08254); experiment: Stromelysin rate assay at 25° C.; type: biochemical; conditions: read-out: Kd measured by a rate assay
T1 construct: made in house
Source text: Two parameters derived from the fluorescence kinetic curves measure the rate of denaturation, namely, the slope at the inflection point, and the first-order rate constant. The values of both parameters decreased in the presence of inhibitors in a saturable, dose-dependent manner, as shown in FIG. 11 for the case of fluorescence measurements. The concentration dependencies were consistent with a model where binding of the inhibitor results in a drastic decrease in the rate of denaturation.

Stromelysin [2] = target: T1, Stromelysin; experiment: Isothermal denaturation of stromelysin monitored by SYPRO Orange fluorescence; conditions: 75° C., simple Langmuir binding isotherm
Method: FIG. 10A. Time-Dependency of the isothermal denaturation of Stromelysin monitored by SYPRO Orange Fluorescence. The time-dependency of stromelysin isothermal denaturation at 75° C. with or without the addition of the competitive inhibitor PNU-143988 was followed by the increase in SYPRO Orange fluorescence as described in Examples. The data for the control reaction were analyzed using Equation 4, and those for the inhibited reactions with Equation 11. Representative data in the presence of 1.5 and 5 mM PNU-143988 are also shown. The solid lines represent the theoretical fits to the experimental data points.
FIGS. 11A-11B. Effect of PNU-143988 on the Initial Rates and the Rate Constants of the Isothermal Denaturation of Stromelysin Monitored by SYPRO Orange. The time-dependency of stromelysin isothermal denaturation at 75° C. with or without the addition of the competitive inhibitor PNU-143988 was followed by the increase in SYPRO Orange fluorescence as described in the Methods. […]
The time-dependencies of the fluorescence of extrinsic dyes during isothermal denaturation were monitored as follows. […] A dye baseline was recorded for 45 seconds and the denaturation reaction initiated by the addition of a small aliquot of the protein stock solution. […] In the latter experiments, the fluorescence increase associated with the addition of dye was always instantaneous.
Fluorescence. […]

For `CNC(=O)[C@H](Cc1ccc(O)cc1)NC(=O)Nc1nnc(S)s1` [PNU-143988], the Kd (Stromelysin [1]) was 400 nM, the Kd (Stromelysin [2]; read-out: Kd from the initial rates) was 280 ± 20 nM and the Kd (Stromelysin [2]; read-out: Kd from the rate constants) was 350 ± 130 nM.
